# Some of the results follow.
# Sequences of proteins named here, by UniProt entry; tags and fusion partners are left off.
# UniProt Q0JBA9, entry or part of it: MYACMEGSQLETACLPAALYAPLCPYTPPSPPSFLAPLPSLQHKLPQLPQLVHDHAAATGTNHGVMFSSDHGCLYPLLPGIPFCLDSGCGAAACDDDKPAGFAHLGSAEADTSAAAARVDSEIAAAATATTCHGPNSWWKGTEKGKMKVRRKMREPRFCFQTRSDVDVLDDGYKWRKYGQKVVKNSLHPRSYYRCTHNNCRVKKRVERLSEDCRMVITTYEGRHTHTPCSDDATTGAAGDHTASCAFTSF
# Biological target: OsWRKY34 (Oryza sativa, UniProt Q0JBA9 1-250)
# Test: protein-binding microarray (RPBM); PBS, 2% BSA, 51.3 ng/ul salmon testes DNA, 50 uM zinc acetate, 200 nM TF, 25 C, 1 h; high values mean tight binding
# Conditions: protein: recombinant; tags: N-terminal polyhistidine and DsRed monomer fusion (pET32a); label: CyDye5-dUTP incorporated in the synthesized complementary strand; 3' TTTTT single-stranded linker to array surface; dsDNA, one strand shown
# How it was run: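 Polyhistidine-tagged DsRed fusions of transcription factors, joined at the N-terminus, were expressed in E. coli BL21-CodonPlus and isolated on Ni–NTA. They were incubated at 200 nM for 1 h at 25 °C on a custom Agilent array, double-stranded and BSA-blocked, in PBS with 2% BSA, salmon testes DNA and 50 µM zinc acetate. The binding signal is per-feature fluorescence intensity (arbitrary units) read on an Axon 4000B scanner after washing.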
row,Sequence,binding signal
1,GGGGTGAGGTGGGAGGGCGGCGCCGCGATGGCCACCGGCGCGGAGTCACCTAGTGCAG,8440 fluorescence intensity (a.u.)
2,CCTGCCGCGATCATGCCACACGACCACCTGCAGTCGTCCTCGGAGTCACCTAGTGCAG,8250 fluorescence intensity (a.u.)
3,CCTCACCGCCGTCTCACCGCAGTTGCCACCCTCACCTTTGCGGAGTCACCTAGTGCAG,8370 fluorescence intensity (a.u.)
4,TAAATTATTTTCTATTTATAAATATGTCGTTTGCCTTATTCGGAGTCACCTAGTGCAG,8080 fluorescence intensity (a.u.)
5,TCCAACCGCAATATCCGTTCCGCTGCGGTGCGTTGCCACTCGGAGTCACCTAGTGCAG,9030 fluorescence intensity (a.u.)
6,CTTTGCCTTGATTGGATCAGCTAGTCCTTCGTTTGAGTCCCGGAGTCACCTAGTGCAG,8510 fluorescence intensity (a.u.)
7,TAGCTGCTGCTGCTGTTGTACCCTGAGGTTCTAGTTTACACGGAGTCACCTAGTGCAG,9500 fluorescence intensity (a.u.)
8,CGCACGCTCTCGCATCCTCGCGTTTCATCCTCCTGTCCGTCGGAGTCACCTAGTGCAG,8820 fluorescence intensity (a.u.)
9,TTGCCCACTTGTTCACGCTATTTAAAGCCTAGTAACACGCCGGAGTCACCTAGTGCAG,9400 fluorescence intensity (a.u.)
10,GACCGCGAGCATGATGCAGCGCCGCGCCTGCTATACTCCACGGAGTCACCTAGTGCAG,8360 fluorescence intensity (a.u.)
11,TCTCATCACTCTTCACCCGCCGCGCCGCGAACTCCGGAACCGGAGTCACCTAGTGCAG,8630 fluorescence intensity (a.u.)
12,ATTCATGTCAGAATCCTGTGTTTTTCCTATTCCTCTGTTTCGGAGTCACCTAGTGCAG,9350 fluorescence intensity (a.u.)
13,ATTCCAGTGTATACGCCTTCGCGCTCCATTTACGATTTCACGGAGTCACCTAGTGCAG,8300 fluorescence intensity (a.u.)
14,AGGAGTTGACGGCGAGGGGATCGAGAGGGAGGGAGGGATGCGGAGTCACCTAGTGCAG,9050 fluorescence intensity (a.u.)
15,TCGACTAACGTTTGATCATTCATTTTATTCAAAATTTTTGCGGAGTCACCTAGTGCAG,8340 fluorescence intensity (a.u.)
16,GGGTGGGCATGTAAGAATCTTGGCTCATGGAAGGAGAAGACGGAGTCACCTAGTGCAG,10200 fluorescence intensity (a.u.)
17,AACCACTCGCTTCCAAACAATCCAAACCTTCCATGCCATTCGGAGTCACCTAGTGCAG,64700 fluorescence intensity (a.u.)
18,TTATTCGGGGTGCATATACTAGGTTAGCTACAGTTGTCAGCGGAGTCACCTAGTGCAG,8500 fluorescence intensity (a.u.)
19,GTCTTTGGAGCGCCGCACAGCAAAGAAAAATATCCAGCGTCGGAGTCACCTAGTGCAG,9260 fluorescence intensity (a.u.)
20,TGTTGTGAATTTTTATTCGCTTTTTATTCGGTTATGCATTCGGAGTCACCTAGTGCAG,9450 fluorescence intensity (a.u.)
21,ATTGCTGATTGTCTGTTCTTTTACTTGACATAACCTGAATCGGAGTCACCTAGTGCAG,8620 fluorescence intensity (a.u.)

# Part of the list above, bar-delimited.
row | Sequence | binding signal
3 | CCTCACCGCCGTCTCACCGCAGTTGCCACCCTCACCTTTGCGGAGTCACCTAGTGCAG | 8370 fluorescence intensity (a.u.)
4 | TAAATTATTTTCTATTTATAAATATGTCGTTTGCCTTATTCGGAGTCACCTAGTGCAG | 8080 fluorescence intensity (a.u.)

# The list continues.

row,Sequence,binding signal
1,TAAGTAGGAGAGGGTTGTGAATTGGGTTGATGGGAGGTGTCGGAGTCACCTAGTGCAG,8760 fluorescence intensity (a.u.)
2,CGTGTCGTGGAAGGTCATTATTGGTTGGGATAGCGTAGCGCGGAGTCACCTAGTGCAG,9440 fluorescence intensity (a.u.)
3,CGCACCTACGTGATATCCTAACTTCTTCTCATTCTTATGGCGGAGTCACCTAGTGCAG,8350 fluorescence intensity (a.u.)
4,AGTATATCATCTGCCTGGACTTCTTTAGATTGTCCTTACACGGAGTCACCTAGTGCAG,8240 fluorescence intensity (a.u.)
5,AGATCACCCTGCCGATAGCCACTGCGATGTTCGTTCTTGTCGGAGTCACCTAGTGCAG,9750 fluorescence intensity (a.u.)
6,TCCTCTCCCACCAATCCTTTGATCCATTCATCCCAACTTCCGGAGTCACCTAGTGCAG,9340 fluorescence intensity (a.u.)
7,CGAAGCCAACTGCAGCATCACACTACCTCACCCACTACCCCGGAGTCACCTAGTGCAG,8230 fluorescence intensity (a.u.)
8,GTAGGAAAGTTTGTTTGTGTGTGTAGAAAAGTTTTGATGTCGGAGTCACCTAGTGCAG,21000 fluorescence intensity (a.u.)
9,CCTTATCCACTTGATGTTACTGCTACTCGTCACCAGATGTCGGAGTCACCTAGTGCAG,8330 fluorescence intensity (a.u.)
10,TCTGTGGTGATTTGTGCTGCGAGAGAAACTTCTTTGTCGACGGAGTCACCTAGTGCAG,8740 fluorescence intensity (a.u.)
11,AATATGGATTGATTATGGTTGTGTTTTAGATGCCTTTCCTCGGAGTCACCTAGTGCAG,8910 fluorescence intensity (a.u.)
12,ACATTACGTCTTAGAGTCCGTGCTGCAGCTGACTACATATCGGAGTCACCTAGTGCAG,8660 fluorescence intensity (a.u.)
13,ATTTAATTCGGTCACCACGAATACCGCATCAATATTGTGCCGGAGTCACCTAGTGCAG,8190 fluorescence intensity (a.u.)
14,GTAACCCTAATTTCAGAAACTAAACACAGTCACGTAAGAACGGAGTCACCTAGTGCAG,65500 fluorescence intensity (a.u.)
15,TGTTGAATTCTGCTTCACTTTTCAGTCTTAGTTCTTAGAACGGAGTCACCTAGTGCAG,8040 fluorescence intensity (a.u.)
16,ACGCGATATCACACTCACACATCCACGAATACATCGCCTACGGAGTCACCTAGTGCAG,10500 fluorescence intensity (a.u.)
17,GCCTCGTTCCCGCGGACTCCGACCTCTCCCGAATCCCTTTCGGAGTCACCTAGTGCAG,8280 fluorescence intensity (a.u.)
18,ATAATTCGTCGTCCATTAGCTCAGCAATTCTCCTTCTCGTCGGAGTCACCTAGTGCAG,10200 fluorescence intensity (a.u.)
19,CCATTTCATATTATAAGTCGTTTTACTTTTTTCTTAATAACGGAGTCACCTAGTGCAG,8480 fluorescence intensity (a.u.)
20,CCCATCACATCACACCGGCCCGCTTCTCTCTCGCGCGCGCCGGAGTCACCTAGTGCAG,11100 fluorescence intensity (a.u.)
21,GTCTCTGTCTTGATCTCTCAATCTCTCTTCTGACCGTCCTCGGAGTCACCTAGTGCAG,8550 fluorescence intensity (a.u.)

# From article PMC7819943, “Rice protein-binding microarrays: a tool to detect cis-acting elements near promoter regions in rice”
